Reference: publication PMC11757107

By UniProt entry, the sequences of proteins in these tests, tags left out. Residues count along the entry.
UniProt P24593, residues 21-272: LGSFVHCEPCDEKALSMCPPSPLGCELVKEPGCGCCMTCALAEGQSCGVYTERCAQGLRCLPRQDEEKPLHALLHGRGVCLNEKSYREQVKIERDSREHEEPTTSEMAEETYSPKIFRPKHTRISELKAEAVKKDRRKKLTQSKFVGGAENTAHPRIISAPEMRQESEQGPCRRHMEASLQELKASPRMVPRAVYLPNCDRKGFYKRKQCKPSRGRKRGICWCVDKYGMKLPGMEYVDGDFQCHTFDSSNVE
UniProt P07355: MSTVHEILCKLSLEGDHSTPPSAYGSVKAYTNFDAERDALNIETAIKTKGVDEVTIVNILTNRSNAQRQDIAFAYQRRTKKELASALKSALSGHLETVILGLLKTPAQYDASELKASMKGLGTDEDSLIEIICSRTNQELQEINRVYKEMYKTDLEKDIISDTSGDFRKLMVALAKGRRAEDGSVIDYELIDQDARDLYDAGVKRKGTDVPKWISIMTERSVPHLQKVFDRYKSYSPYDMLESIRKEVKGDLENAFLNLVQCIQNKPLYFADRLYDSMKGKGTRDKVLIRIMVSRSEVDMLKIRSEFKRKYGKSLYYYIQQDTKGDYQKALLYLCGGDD

Molecular target: IGFBP5 (human (endogenous in THP-1)) (UniProt P24593)
Assay: affinity purification with mass spectrometry; IGFBP5-IP from THP-1 lysate (NP-40 buffer, protein A/G magnetic beads, 5 washes); gel bands differing from the control IP excised and read by LC-MS; proteins exclusively detected in the IGFBP5-IP sample

binding: binds
Substance: ANXA2 (from UniProt P07355 1-339)

Results are given in words; binding and its absence hold for the method and conditions named. Binding seen in cells or lysates may run through a third protein. Here binding means that the protein was enriched with, or labelled near, the bait; the list need not be complete.
